Data published in article doi:10.1101/2025.02.14.637896 (bioRxiv, 2025).
Results are given in words; binding and its absence hold for the method and conditions named. Some results given as binding are weak or reduced against the parent protein; the word gives no strength.

Tests used:
[1] = target: GIRK2 R92F channel (G protein-gated inwardly rectifying potassium channel 2, R92F substitution) (mouse) (UniProt P48542); assay: cryo-EM structure
[2] = target: GIRK2 R92Q channel (G protein-gated inwardly rectifying potassium channel 2, R92Q substitution) (mouse) (UniProt P48542); assay: cryo-EM structure

B1: GIRK2 R92F channel (G protein-gated inwardly rectifying potassium channel 2, R92F substitution) (natural protein, mouse, UniProt P48542 1-425, looked up)
chain: MTMAKLTESMTNVLEGDSMDQDVESPVAIHQPKLPKQARDDLPRHISRDRTKRKIQRYVRKDGKCNVHHGNVRETYRYLTDIFTTLVDLKWFFNLLIFVMVYTVTWLFFGMIWWLIAYIRGDMDHIEDPSWTPCVTNLNGFVSAFLFSIETETTIGYGYRVITDKCPEGIILLLIQSVLGSIVNAFMVGCMFVKISQPKKRAETLVFSTHAVISMRDGKLCLMFRVGDLRNSHIVEASIRAKLIKSKQTSEGEFIPLNQSDINVGYYTGDDRLFLVSPLIISHEINQQSPFWEISKAQLPKEELEIVVILEGIVEATGMTCQARSSYITSEILWGYRFTPVLTMEDGFYEVDYNSFHETYETSTPSLSAKELAELANRAEVPLSWSVSSKLNQHAELETEEEEKNPEELTERNGDVANLENESKV
binding [1]: binds

B2: GIRK2 R92Q channel (G protein-gated inwardly rectifying potassium channel 2, R92Q substitution) (protein, UniProt P48542 1-425)
chain: MTMAKLTESMTNVLEGDSMDQDVESPVAIHQPKLPKQARDDLPRHISRDRTKRKIQRYVRKDGKCNVHHGNVRETYRYLTDIFTTLVDLKWQFNLLIFVMVYTVTWLFFGMIWWLIAYIRGDMDHIEDPSWTPCVTNLNGFVSAFLFSIETETTIGYGYRVITDKCPEGIILLLIQSVLGSIVNAFMVGCMFVKISQPKKRAETLVFSTHAVISMRDGKLCLMFRVGDLRNSHIVEASIRAKLIKSKQTSEGEFIPLNQSDINVGYYTGDDRLFLVSPLIISHEINQQSPFWEISKAQLPKEELEIVVILEGIVEATGMTCQARSSYITSEILWGYRFTPVLTMEDGFYEVDYNSFHETYETSTPSLSAKELAELANRAEVPLSWSVSSKLNQHAELETEEEEKNPEELTERNGDVANLENESKV
binding [2]: binds
